Results as given in patent publication US20080009546A1 (Chevron U.S.A. Inc., priority 2005, published 2008).

The compounds below were run on NMDA receptor (assay: [3H]MK-801 binding assay, NMDA receptors in guinea pig brain membranes). Settings: guinea pig brain membrane preparation (Table 29).
Method: Hartley guinea pigs were sacrificed, and their brains were quickly removed and weighed. The brains then were homogenized in 50 mM Tris HCl buffer, pH 7.7, using a Polytron homogenizer. The homogenate was centrifuged at 40,000×g for 15 min, rehomogenized, and centrifuged again. The final pellet was resuspended in Tris-HCl, pH 7.7, at a final concentration of 6.67 mg original wet weight of tissue/ml. […] The samples were then filtered through glass fiber filters on a Tomtec cell harvester. The filters were washed 3 times with 3 ml of cold buffer. Filters were dried overnight and counted next day on a Wallac Betaplate Reader.
The binding experiments were conducted as follows. […] For each compound, graphs were prepared containing individual competition curves obtained for that compound. IC50 values and Hill coefficients were calculated using the program Prism. Ki values were calculated using the Chang Prusoff transformation: Ki=IC50/(1+L/Kd)
where L is radioligand concentration and Kd is the binding affinity of the radioligand, as determined previously by saturation analysis. […] In each experiment, one standard compound was simultaneously run on each 96 well plate.

Compound	Hill Slope
1,6-dimethyl-2-aminodiamantane mixture [MDT-6]	1.30 ± 0.07
NC12CC3C4CC5(N)CC3C(C1)C(C5)C4C2 [MDT-5]	1.05 ± 0.30
Cl.NCC12CC3C4CC5CC3C(C1)C(C5)C4C2 [MDT-61]	1.50 ± 0.40
2-aminotriamantane [MDT-50]	1.07 ± 0.06
1,6-dimethyl-4-aminodiamantane mixture [MDT-7]	2.05 ± 0.34
NC12CC3CC4C1CC1CC2C(C3)C4(N)C1 [MDT-4]	0.65 ± 0.06
CC12CC3CC(C)(C1)CC(N)(C3)C2 [memantine, 1-amino-3,5-dimethyladamantane, reference compound]	1.00 ± 0.05
CC12CC3CC4C1CC1(CN)CC2C(C3)C4(C)C1 [MDT-65]	1.11 ± 0.11
CC12CC3CC4C1CC1(N)CC2C(C3)C4(C)C1 [MDT-33, 1,6-dimethyl-4-aminodiamantane]	1.13 ± 0.09
NC12CC3C4CC5CC3C(C1)C(C5)C4C2 [MDT-3]	1.55 ± 0.10
CC12CC3CC4C1CC1(N)CC2C(C3)C4(C)C1 [MDT-23 (prep from Example 5)]	0.97 ± 0.05
CC12CC3C4CC5(C)CC3C(C1)C(CN)(C5)C4C2 [MDT-63]	1.18 ± 0.01
3-amino-triamantane [MDT-48]	1.27 ± 0.20
CC12CC3CC4C1CC1CC2C(N)(C3)C4(C)C1 (centres unmarked) [MDT-43, 1,6-dimethyl-2-aminodiamantane]	0.92 ± 0.1
CC12CC3(N)CC4C5CC(CC41)CC2C5C3 (single isomer, unassigned) [MDT-22 (prep from Example 4)]	0.47 ± 0.03
CC12CC3C4CC5(C)CC(C(C1)C3(N)C5)C4(N)C2 [MDT-53, 4,9-dimethyl-1,6-diaminodiamantane]	1.12 ± 0.03
NC12CC3CC4C5CC(CC41)CC2C5C3 [MDT-2]	1.21 ± 0.00
CC(N)C12CC3CC4C5CC(CC41)CC2C5C3 (centres unmarked) [MDT-57]	0.87 ± 0.07
CC12CC3CC4C5CC(N)(CC41)CC2C5C3 [MDT-24, 1-methyl-4-aminodiamantane]	1.47 ± 0.38
CC12CC3C4CC5(C)CC3C(C1)C(N)(C5)C4C2 [MDT-51, 4,9-dimethyl-1-aminodiamantane]	0.78 ± 0.17
NCC12CC3CC4C5CC(CC41)CC2C5C3 [MDT-56]	0.51 ± 0.09
CC12CC3(N)CC4C1CC1CC2C(N)(C3)C4(C)C1 (centres unmarked) [MDT-9, 1,6-dimethyl-2,4-diaminodiamantane]	0.87 ± 0.14
CC12CC3CC4C1CC1(N)CC2C(C3)C4(N)C1 [MDT-29]	0.67 ± 0.15
CC12CC3CC4C1CC1(N)CC2C(C3)C4(C)C1 [MDT-23 (prep from Example 4)]	0.83 ± 0.00
NC12CC3CC4C5CC(CC41)CC2C5C3 [MDT-1]	1.28 ± 0.10
CC12CC3(N)CC4C5CC(CC41)CC2C5C3 (single isomer, unassigned) [MDT-22 (prep from Example 7)]	1.18 ± 0.72

Same assay, conditions: standard compounds at the NMDA site (Table 27)

Compound	Hill Slope
CN[C@H](CC(=O)O)C(=O)O [NMDA]	0.80 ± 0.04 (n = 2)
CC12CC3CC(C)(C1)CC(N)(C3)C2 [memantine, 1-amino-3,5-dimethyladamantane, reference compound]	1.00 ± 0.05 (n = 3)
NC12CC3CC(CC(C3)C1)C2 [Amantadine]	1.20 ± 0.45 (n = 2)
